# Measurements as given in patent publication US7605133.
# Results are given in words; binding and its absence hold for the method and conditions named. Some entries that bind do so weakly or less than the wild type.
# Target: NAC portion of α-synuclein (approx. amino acids 61-87) (human) (UniProt P37840)
# Assay: phage display selection
row,Binder,binding
1,MMMMMRL,binds

# Target: C-terminal portion of α-synuclein (approx. amino acids 113-140) (human) (UniProt P37840)
# Assay: phage display selection
row,Binder,binding
1,HYAKNPI,binds
2,ATINKSL,binds
3,RRRGMAI,binds
4,THRLPSR,binds
5,TKHGPRK,binds
6,WRQTRKD,binds
